Sequences of proteins named here, by UniProt entry; tags and fusion partners are left off. A change or cut given only in a name is not applied to a line headed by its entry.
UniProt P0AFB8: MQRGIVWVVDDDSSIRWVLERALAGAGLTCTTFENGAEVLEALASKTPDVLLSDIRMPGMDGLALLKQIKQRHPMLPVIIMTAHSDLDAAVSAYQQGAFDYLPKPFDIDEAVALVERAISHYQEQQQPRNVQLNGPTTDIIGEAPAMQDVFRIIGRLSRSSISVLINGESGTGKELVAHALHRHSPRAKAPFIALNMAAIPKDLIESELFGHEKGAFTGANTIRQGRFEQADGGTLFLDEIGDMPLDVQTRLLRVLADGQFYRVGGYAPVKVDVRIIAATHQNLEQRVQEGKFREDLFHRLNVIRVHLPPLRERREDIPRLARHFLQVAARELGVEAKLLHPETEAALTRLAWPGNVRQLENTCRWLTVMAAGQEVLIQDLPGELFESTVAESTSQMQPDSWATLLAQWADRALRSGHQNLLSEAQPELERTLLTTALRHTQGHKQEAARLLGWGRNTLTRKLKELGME

For at least one entry, the source does not settle the construct or the ends of the probe. Negatives hold for the conditions tested.
These sequences were tested against NtrC-P (NtrC phosphorylated in situ with carbamyl phosphate) (Escherichia coli (ASKA(-) clone JW3839)) (UniProt P0AFB8) (assay: EMSA). Settings: 10 mM carbamyl phosphate, EMSA: 40 mM Tris-HCl pH 8.0, 100 mM NaCl, 10 mM MgCl2, 1 mM DTT, 0-1000 nM NtrC, 5 nM 32P probe, 37 C, 4.5% native PAGE at 37 C, recombinant protein, protein details: 6xHis, label: 32P.
“CACAGCAACTTCAGATGGGGTTTCGCAAAGCGGGCTCCAGTGACATTGTCGACGTCAAACAATGCCCCATTTTAGCGCCCCAACTTGAAGCATTGCTGCCCAAAGTCAGGGCATGTCTGGGCAGCTTACAAGCTATGCGCCATCTTGGTCATGTTGAACTGGTACAGGCAACCAGCGGCACGCTGATGATTTTGCGCCATACCGCACCGCTAAGTTCGGCAGATCGCGAAAAACTGGAACGCTTTTCGCATTCTGAAGGCCTGGATCTGTATCTCGCCCCCGATAGTGAGATACTCGAAACCGTCTCTGGTGAGATGCCCTGGTATGACTCAAACG (double strand) [relA probe]”: binds.
“GTCCCTTTGTGATCGCTTTCACGGAGCATAAAAAGGGTTATCCAAAGGTCATTGCACCAACATGGTGCTTAATGTTTCCATTGAAGCACTATATTGGTGCAACATTCACATCGTGGTGCAGCCCTTTTGCACGATGGTGCGCATGATAACGCCTTTTAGGGGCAATTTAAAAGTTGGCACAGATTTCGCTTTATCTTTTTTACGGCGACACGGCCAAAATAATTGCAGATTTCGTTACCACGACGACCATGACCAATCCAGGAGAGTTAAAGTATGTCCGCTGAACACGTACTGACGATGCTGAACGAGCACGAAGTGAAGTTTGTTGATTTGCGCTTCACCGA (double strand) [glnA probe]”: binds.

Same assay, conditions: 10 mM carbamyl phosphate, up to 1000 nM NtrC-P, EMSA: 40 mM Tris-HCl pH 8.0, 100 mM NaCl, 10 mM MgCl2, 1 mM DTT, 0-1000 nM NtrC, 5 nM 32P probe, 37 C, 4.5% native PAGE at 37 C, recombinant protein, protein details: 6xHis, label: 32P
“CTTGCTGCGCTTCGTTGATCAGCGCATCGGCAATTTTGCCGGTGTCCATTTTTAGTTCACCGTTACGAATCGCCAGTTTTAACGCTTCGACACGTTCAAGATTGATATCACTGCTGCCGGGTTGCATCAGTTTTGCTTGCGCGTCGCTTAACGTCACACTGGTGCTGGTGGAGGCGGTTGTTTTTGCCGCCCGGCTGTTCGTTACCGGCGCGTCAGTGGTTTCGCGCGGTTGAACGGTGCTTACAGGCTTCAGAGGCGAAGTGCGATCAATACTCATGGTTTATTCCTCATTGAGGGCGCTTTTATCATGTG (double strand) [flgN probe (flgMN)]”: no binding.
“TTGAACAAGGTCGCATCACCGAAAAAACTAACCAAAACTTTGAATGACACTTTTCGGTTTACTGTGGTAGAGTAACCGTGAAGACAAAATTTCTCTGAGATGTTCGCAAGCGGGCCAGTCCCCTGAGCCGATATTTCATACCACAAGAATGTGGCGCTCCGCGGTTGGTGAGCATGCTCGGTCCGTCCGAGAAGCCTTAAAACTGCGACGACACATTCACCTTGAACCAAGGGTTCAAGGGTTACAGCCTGCGGCGGCATCTCGGAGATTCCCTTCTTATCTGGCACCAGCCATGACGCAACTACCAGAACTCCCACTGACATTATCCCGACAAGAAATCCGCAAA (double strand) [ssrS probe]”: no binding.
“TTAGTACCGGTAGTGGCCTGTACCGTCAGTTCACGCACACGCTGTAAGTTGTTGTTGATTTCGGACAGCGCGCCTTCGGTGGTCTGCGCAACGGAGATACCGTCGTTGGCGTTACGGGCCGCCTGAGTCAGGCCTTTAATGTTAGAGGTGAAACGGTTAGCAATCGCCTGACCCGCTGCGTCATCCTTCGCGCTGTTAATACGCAAGCCAGAAGACAGACGCTCGATAGAACTCGACAGCGCAGACTGGTTCTTGTTGATATTATTTTGAGTGATCAGCGAGAGGCTGTTGGTATTAATGACTTGTGCCATGATTCGTTATCCTATATTGCAAGTCGTTGATTACGTATTGGGTTTCCA (double strand) [fliC probe]”: no binding.
“ACGAATACCTGCTGCTTGTGCAAGTTTTGTTTTTGAACCGAAATACAAAAGAGCGTCAGTTTTAAGCATTTAAAACACCTTTATTGTTAGTCATAACTAACAAGATAGATGTTAACAAAAACATAGTCAATACGATTTAGCATTAGCTAACTATGGAAACAAAAAATTTAACTATCGGCGAACGCATCAGGTATCGTCGGAAAAACCTCAAACACACCCAAAGGTCTCTTGCTAAAGCCCTGAAAATCTCCCATGTGTCTGTATCACAATGGGAACGGGGTGATAGTGAACCTACAGGGAAGAACCTTTTTGCCCTCAGTAAAGTATTGCAATGCTCACCAACATGG (double strand) [dicC probe]”: no binding.
